In series [1] the target is T1, α1-acid glycoprotein (AGP) (Homo sapiens, UniProt P02763). The series can be described thus: biochemical.
In series [2] the target is T1, α1-acid glycoprotein (AGP). The series can be described thus: biochemical. The source holds these as a separate data set.
The target in series [3] is T1, α1-acid glycoprotein (AGP). The series can be described thus: in vitro. The protocol: This system features the proteins of interest covalently bound to the surface of silica beads through the use of proprietary attachment chemistry. The surface was designed to minimize interactions with drug molecules, thus preventing non-specific binding of test substances.
AGP or HSA protein-coated beads (Sovicell, Leipzig, Germany; distributed by ADMEcell, Emeryville, CA) were thawed at room temperature for two hours. Stock solutions of each compound were diluted to a final sample concentration of 20 µM or 50 µM. Samples (45 µL) were added to 405 µL of premixed solutions of buffer and AGP or HSA coated beads and mixed thoroughly to keep the beads suspended in solution to allow for the compounds to bind to the protein coated beads, [30]. After centrifuging, 100 µL of supernatant were transferred to a 96-well plate and analyzed on an Agilent 1100 HPLC coupled to a diode array detector.
After equilibrating the column with 50 mM ammonium acetate buffer/acetonitrile (99%/1%) at a flow rate of 500 µL/min for ∼2 minutes, compounds were detected by initiating a five minute gradient to 100% acetonitrile, held for 3 minutes, followed by a one minute gradient to 1% acetonitrile, where the composition was then maintained for the final three minutes, for a total run time of 12 minutes. […] Data were evaluated using the Sovicell-supplied Microsoft Excel (Redmond, WA) spreadsheets, [44].

Sequences of proteins named here, by UniProt entry; tags and fusion partners are left off. Residues count along the entry.
UniProt P02763, 19-201: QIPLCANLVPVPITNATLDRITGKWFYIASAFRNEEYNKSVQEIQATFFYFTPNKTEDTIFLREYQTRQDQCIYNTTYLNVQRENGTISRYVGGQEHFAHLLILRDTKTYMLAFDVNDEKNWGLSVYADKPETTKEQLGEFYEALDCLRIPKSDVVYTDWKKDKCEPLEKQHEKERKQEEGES

This is an account of results in PMC3447978, “High-Throughput 1,536-Well Fluorescence Polarization Assays for α1-Acid Glycoprotein and Human Serum Albumin Binding” (PLoS ONE, 2012).

Like-named read-outs stand apart in the source and are kept apart here. A value given as a limit tells only on which side of the number the result lay.

A word on the IC50: it is the midpoint of a concentration-inhibition curve. What is called Kd is a measure of binding affinity in units of concentration. With `COc1ccc2cc([C@H](C)C(=O)O)ccc2c1` [Naproxen, naproxen], the values for the IC50 in series [1] and in series [2] were > 1000 µM and > 1140 µM, respectively. In series [3], this compound registered a Kd at 2 min, 50 µM of 688 µM.
